# The full ranking holds about 33,000 sequences; the median of “E-score (-0.5 to 0.5)” is about -0.0059, and the highest 2% start at about 0.26. The list shows a part of the results.
# Target: T1, Cin5 (UniProt P40917)
# T1 sequence: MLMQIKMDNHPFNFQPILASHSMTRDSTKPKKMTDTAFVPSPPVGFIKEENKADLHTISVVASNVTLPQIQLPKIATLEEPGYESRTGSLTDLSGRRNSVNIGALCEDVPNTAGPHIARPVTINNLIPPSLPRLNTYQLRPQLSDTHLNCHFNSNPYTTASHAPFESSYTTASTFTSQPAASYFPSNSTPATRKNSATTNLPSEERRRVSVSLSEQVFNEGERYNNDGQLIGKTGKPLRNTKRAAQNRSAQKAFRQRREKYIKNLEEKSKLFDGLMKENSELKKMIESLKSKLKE
# Test: PBM E-score (8-mer binding enrichment) (E-score (-0.5 to 0.5)); higher = stronger / more preferred TF binding
# Details: protein concentration: 100 nM; construct: GST-full length
# How it was run: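 Full-length yeast transcription factors or their DNA-binding domains, GST-tagged and expressed with PURExpress, were applied at about 100-200 nM to universal all-10-mer Agilent arrays. These arrays had been made double-stranded by primer extension on fresh or once-stripped slides. Detection used fluorescent anti-GST, normalisation used masliner, and E-scores for ungapped eight-base words pooled with reverse complements came from the Universal PBM Analysis Suite.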
row,Sequence,PBM E-score
1,GGAGAACA,-0.033
2,CTAGCAAG,-0.0636
3,CAGAGAGA,-0.0433
4,GAAGGAGA,0.0841
5,ATAACTGG,0.00864
6,AAATCCAA,0.117
7,GTAGCTCA,-0.046
8,TAACGACA,0.145
9,GATTCGGC,0.0202
10,ATCAAAGA,-0.107
11,CCCTAGAG,-0.0969
12,GCCTATCC,-0.122
13,ACGTTCAA,-0.133
14,GGATAACA,0.0726
15,AGCATGTC,0.00532
16,ATATTAGG,0.192
17,AGGATGGA,-0.0937
18,AGTACCCC,-0.188
19,ATCGACAA,0.0851
20,ATTGCAAT,0.164
21,TATAGGAA,0.124
22,GACTCACC,-0.14
23,GCCACTCA,-0.0426
24,CTTCGAAC,-0.0704
25,GTATCAGA,-0.0398

row,Sequence,PBM E-score
1,GGACTGCA,-0.157
2,CAGTTGTC,0.0812
3,ATCGGCGG,0.0315
4,CTTGGGTA,0.0866
5,GACTAGAA,0.0407
6,CGGACCCC,-0.295
7,ACATCAGC,0.0733
8,ATTTGGGA,0.0403
9,ACGTGCCT,-0.155
10,GTTACAAC,0.118
11,ATCTTCGG,0.128
12,AAACTAAT,0.312
13,ATCCCATC,0.0574
14,AGCCTGCG,-0.306
15,GTCCCCAC,-0.284
16,GAGTGGTA,-0.0138
17,ATGTCAAT,0.156
18,AATCGAAC,0.0419
19,ATGGAAAA,0.141
20,ACCTCCAA,-0.135
21,ACGGGTCA,-0.279
22,CCTGATCG,-0.0727
23,GAGCTAAA,-0.173
24,TCCTGCCA,-0.118
25,AAATTGAT,0.158

row,Sequence,PBM E-score
1,ATTTGTGA,0.0702
2,GGACAAAC,-0.0821
3,ATCAATGC,0.123
4,AACATCCA,0.138
5,ATAGCCAG,-0.0709
6,GAAAAGGA,0.0226
7,AATAACAC,0.247
8,GACCAAGC,-0.169
9,CCACCAAG,-0.106
10,AAACCCAG,0.0437
11,ACATCAAC,0.208
12,CCAAAGTA,0.0124
13,AGGCTGAG,-0.0489
14,ACATCAAT,0.172
15,CAAACCAC,0.00432
16,GAAGTTAA,-0.0529
17,CGACAAGC,-0.12
18,CAACATCC,0.0233
19,CGCTGTGC,-0.0792
20,CCGGGAGC,-0.336
21,AGGGACCT,-0.191
22,ATGATCTG,0.115
23,AAATACAT,0.138
24,ACAACTGC,-0.0262
25,CCCACTTC,0.0299

# A run of entries from further up, for reference:
row,Sequence,PBM E-score
9,CCACCAAG,-0.106
10,AAACCCAG,0.0437
11,ACATCAAC,0.208

# Rewritten tab-delimited: entries from further up.
row	Sequence	PBM E-score
3	ATCAATGC	0.123
4	AACATCCA	0.138
9	CCACCAAG	-0.106
10	AAACCCAG	0.0437
15	CAAACCAC	0.00432
17	CGACAAGC	-0.12
18	CAACATCC	0.0233

# Going on with the list:

row,Sequence,PBM E-score
1,ATATCCAG,-0.0155
2,ATCTACAT,0.255
3,GGGTACGA,-0.0524
4,ATAATCCA,0.225
5,ATAGGGAG,-0.23
6,AAACATAA,0.199
7,CCGGTCGA,-0.239
8,TAAACATA,0.162
9,GCACCGGC,-0.178
10,TACAAGTA,0.129
11,CGTGCCGA,-0.115
12,ATCCTACG,-0.0513
13,AGGGCGTA,-0.0973
14,CGGTAGGA,-0.0917
15,GACCCTGC,-0.212
16,AGGGATAA,-0.0332
17,GCCGCCGA,0.0845
18,ATTCACGA,0.0917
19,ATTTGTTG,0.154
20,ACTAGTCT,-0.0739
21,AATGGAGA,-0.0939
22,AGGCAAAG,0.0351
23,ATTGCAAA,0.161
24,ACCATTCG,-0.17
25,CGTAAGTC,0.0859

row,Sequence,PBM E-score
1,GGGACAAC,-0.0514
2,CGTTAATA,0.191
3,ATTAAGTA,0.254
4,CGGTTAGC,-0.214
5,CAATCAGG,-0.0583
6,TATGACAA,0.0745
7,CAAGCTTA,0.184
8,GACTGTCC,-0.175
9,GCCGGCCC,-0.133
10,GGGAAAAC,0.0147
11,GCCTTGCC,-0.204
12,CAGCTACA,0.0445
13,GACTAAGC,0.192
14,AATCTGAG,-0.076
15,CTTTAAAA,-0.00746
16,GAGTATAC,0.148
17,GTGCCCAA,-0.0898
18,ACGGTCTG,-0.176
19,CAATACGA,-0.00571
20,GGTAAGCA,0.318
21,ACGGGTTG,-0.167
22,ATGGGCGC,-0.0843
23,TCTGTTAA,0.0592
24,ATTAGAAC,0.256
25,ACATGAGA,0.0909

# Some values from the results shown:
# GAGCTAAA – PBM E-score: -0.173
# ACATGAGA – PBM E-score: 0.0909

# (further entries)

row,Sequence,PBM E-score
1,AAACCCCT,-0.253
2,AGCACGCA,-0.127
3,ACTACGCT,-0.0378
4,TGCATCCA,0.0333
5,TCAGGGCA,-0.0392
6,CTACGCCA,-0.226
7,CCGAAGTC,-0.0417
8,GCACACCC,-0.187
9,GATTGTAA,0.123
10,AAACGGAG,-0.0245
11,CAACTTAG,0.247
12,CTGTTATA,0.0812
13,ACGACGAG,-0.0929
14,AAGCTATT,0.0828
15,CCGGAGCG,-0.235
16,AACAAACA,0.183
17,GCCAACGA,-0.0711
18,AAATTTAG,0.102
19,CAACGGGC,-0.0196
20,CCTGCGTC,-0.284
21,GATGTTCA,-0.202
22,ACAAGTTG,0.0874
23,GACGGTCC,-0.201
24,ACGGTTCA,-0.261
25,GAGTTACC,-0.092

row,Sequence,PBM E-score
1,ACGGGCTC,-0.391
2,GAACCGTC,-0.0783
3,AGGCACAA,-0.0859
4,AGAGATCT,-0.171
5,GCGCGACA,0.0258
6,GCACCAAC,-0.092
7,CAGAGCTC,-0.295
8,CCCCACTA,-0.0856
9,CAGCATAC,-0.0173
10,GGGAATGA,0.277
11,GAGGTGCC,-0.136
12,ATCTATTG,0.0431
13,TACGACTA,0.045
14,GCCACTTA,0.0784
15,AGACGCGG,-0.0536
16,CCCGCAAC,0.0475
17,TAGATGAA,0.137
18,ACGCTAGT,-0.054
19,CGGTGGCC,-0.0338
20,CGGCAGGA,-0.255
21,GAGGCTAA,-0.00141
22,AAAAACTG,-0.114
